Assay results from paper PMC9462884, “Tensin3 interaction with talin drives the formation of fibronectin-associated fibrillar adhesions” (The Journal of Cell Biology, 2022).
Results are given in words; binding and its absence hold for the method and conditions named. Binding seen in cells or lysates may run through a third protein. Here binding means that the protein was enriched with, or labelled near, the bait; the list need not be complete.

By UniProt entry, the sequences of proteins in these tests, tags left out.
UniProt Q68CZ2: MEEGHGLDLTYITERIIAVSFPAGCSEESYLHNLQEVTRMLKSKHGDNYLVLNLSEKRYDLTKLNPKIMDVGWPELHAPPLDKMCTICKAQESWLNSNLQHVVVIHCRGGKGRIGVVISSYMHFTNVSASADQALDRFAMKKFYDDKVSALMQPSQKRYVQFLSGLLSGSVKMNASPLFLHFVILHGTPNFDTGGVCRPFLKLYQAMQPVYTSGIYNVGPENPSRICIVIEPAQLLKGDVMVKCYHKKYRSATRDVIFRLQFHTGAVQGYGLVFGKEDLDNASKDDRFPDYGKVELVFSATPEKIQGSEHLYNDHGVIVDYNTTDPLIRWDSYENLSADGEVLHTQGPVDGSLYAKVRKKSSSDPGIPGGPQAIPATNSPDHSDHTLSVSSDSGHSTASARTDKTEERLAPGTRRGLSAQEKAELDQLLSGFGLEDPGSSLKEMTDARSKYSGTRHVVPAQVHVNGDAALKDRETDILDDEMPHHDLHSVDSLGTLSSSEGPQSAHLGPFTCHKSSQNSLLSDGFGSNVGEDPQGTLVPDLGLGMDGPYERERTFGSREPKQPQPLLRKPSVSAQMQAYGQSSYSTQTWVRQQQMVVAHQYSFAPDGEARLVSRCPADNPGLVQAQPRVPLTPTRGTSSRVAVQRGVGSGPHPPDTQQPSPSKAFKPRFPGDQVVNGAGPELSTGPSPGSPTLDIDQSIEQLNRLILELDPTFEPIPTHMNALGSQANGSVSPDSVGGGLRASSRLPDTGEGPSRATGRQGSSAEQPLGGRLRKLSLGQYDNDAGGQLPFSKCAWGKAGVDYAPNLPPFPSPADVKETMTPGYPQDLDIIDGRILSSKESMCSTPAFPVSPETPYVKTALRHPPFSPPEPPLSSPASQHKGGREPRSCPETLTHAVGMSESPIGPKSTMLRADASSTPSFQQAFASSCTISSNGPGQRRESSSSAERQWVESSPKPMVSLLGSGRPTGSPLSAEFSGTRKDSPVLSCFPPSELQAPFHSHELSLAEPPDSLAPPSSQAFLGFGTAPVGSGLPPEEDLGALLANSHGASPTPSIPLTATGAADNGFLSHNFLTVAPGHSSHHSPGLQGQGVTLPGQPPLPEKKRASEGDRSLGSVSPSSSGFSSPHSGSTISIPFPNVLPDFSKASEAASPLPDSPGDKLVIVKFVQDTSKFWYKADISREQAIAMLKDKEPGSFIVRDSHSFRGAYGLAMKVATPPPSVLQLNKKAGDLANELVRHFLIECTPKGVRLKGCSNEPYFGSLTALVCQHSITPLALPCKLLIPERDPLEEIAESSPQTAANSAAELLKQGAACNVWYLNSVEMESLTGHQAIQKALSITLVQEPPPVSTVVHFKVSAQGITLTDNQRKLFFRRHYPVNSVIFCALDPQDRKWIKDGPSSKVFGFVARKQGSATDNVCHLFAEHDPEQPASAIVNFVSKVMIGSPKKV
UniProt Q9Y490: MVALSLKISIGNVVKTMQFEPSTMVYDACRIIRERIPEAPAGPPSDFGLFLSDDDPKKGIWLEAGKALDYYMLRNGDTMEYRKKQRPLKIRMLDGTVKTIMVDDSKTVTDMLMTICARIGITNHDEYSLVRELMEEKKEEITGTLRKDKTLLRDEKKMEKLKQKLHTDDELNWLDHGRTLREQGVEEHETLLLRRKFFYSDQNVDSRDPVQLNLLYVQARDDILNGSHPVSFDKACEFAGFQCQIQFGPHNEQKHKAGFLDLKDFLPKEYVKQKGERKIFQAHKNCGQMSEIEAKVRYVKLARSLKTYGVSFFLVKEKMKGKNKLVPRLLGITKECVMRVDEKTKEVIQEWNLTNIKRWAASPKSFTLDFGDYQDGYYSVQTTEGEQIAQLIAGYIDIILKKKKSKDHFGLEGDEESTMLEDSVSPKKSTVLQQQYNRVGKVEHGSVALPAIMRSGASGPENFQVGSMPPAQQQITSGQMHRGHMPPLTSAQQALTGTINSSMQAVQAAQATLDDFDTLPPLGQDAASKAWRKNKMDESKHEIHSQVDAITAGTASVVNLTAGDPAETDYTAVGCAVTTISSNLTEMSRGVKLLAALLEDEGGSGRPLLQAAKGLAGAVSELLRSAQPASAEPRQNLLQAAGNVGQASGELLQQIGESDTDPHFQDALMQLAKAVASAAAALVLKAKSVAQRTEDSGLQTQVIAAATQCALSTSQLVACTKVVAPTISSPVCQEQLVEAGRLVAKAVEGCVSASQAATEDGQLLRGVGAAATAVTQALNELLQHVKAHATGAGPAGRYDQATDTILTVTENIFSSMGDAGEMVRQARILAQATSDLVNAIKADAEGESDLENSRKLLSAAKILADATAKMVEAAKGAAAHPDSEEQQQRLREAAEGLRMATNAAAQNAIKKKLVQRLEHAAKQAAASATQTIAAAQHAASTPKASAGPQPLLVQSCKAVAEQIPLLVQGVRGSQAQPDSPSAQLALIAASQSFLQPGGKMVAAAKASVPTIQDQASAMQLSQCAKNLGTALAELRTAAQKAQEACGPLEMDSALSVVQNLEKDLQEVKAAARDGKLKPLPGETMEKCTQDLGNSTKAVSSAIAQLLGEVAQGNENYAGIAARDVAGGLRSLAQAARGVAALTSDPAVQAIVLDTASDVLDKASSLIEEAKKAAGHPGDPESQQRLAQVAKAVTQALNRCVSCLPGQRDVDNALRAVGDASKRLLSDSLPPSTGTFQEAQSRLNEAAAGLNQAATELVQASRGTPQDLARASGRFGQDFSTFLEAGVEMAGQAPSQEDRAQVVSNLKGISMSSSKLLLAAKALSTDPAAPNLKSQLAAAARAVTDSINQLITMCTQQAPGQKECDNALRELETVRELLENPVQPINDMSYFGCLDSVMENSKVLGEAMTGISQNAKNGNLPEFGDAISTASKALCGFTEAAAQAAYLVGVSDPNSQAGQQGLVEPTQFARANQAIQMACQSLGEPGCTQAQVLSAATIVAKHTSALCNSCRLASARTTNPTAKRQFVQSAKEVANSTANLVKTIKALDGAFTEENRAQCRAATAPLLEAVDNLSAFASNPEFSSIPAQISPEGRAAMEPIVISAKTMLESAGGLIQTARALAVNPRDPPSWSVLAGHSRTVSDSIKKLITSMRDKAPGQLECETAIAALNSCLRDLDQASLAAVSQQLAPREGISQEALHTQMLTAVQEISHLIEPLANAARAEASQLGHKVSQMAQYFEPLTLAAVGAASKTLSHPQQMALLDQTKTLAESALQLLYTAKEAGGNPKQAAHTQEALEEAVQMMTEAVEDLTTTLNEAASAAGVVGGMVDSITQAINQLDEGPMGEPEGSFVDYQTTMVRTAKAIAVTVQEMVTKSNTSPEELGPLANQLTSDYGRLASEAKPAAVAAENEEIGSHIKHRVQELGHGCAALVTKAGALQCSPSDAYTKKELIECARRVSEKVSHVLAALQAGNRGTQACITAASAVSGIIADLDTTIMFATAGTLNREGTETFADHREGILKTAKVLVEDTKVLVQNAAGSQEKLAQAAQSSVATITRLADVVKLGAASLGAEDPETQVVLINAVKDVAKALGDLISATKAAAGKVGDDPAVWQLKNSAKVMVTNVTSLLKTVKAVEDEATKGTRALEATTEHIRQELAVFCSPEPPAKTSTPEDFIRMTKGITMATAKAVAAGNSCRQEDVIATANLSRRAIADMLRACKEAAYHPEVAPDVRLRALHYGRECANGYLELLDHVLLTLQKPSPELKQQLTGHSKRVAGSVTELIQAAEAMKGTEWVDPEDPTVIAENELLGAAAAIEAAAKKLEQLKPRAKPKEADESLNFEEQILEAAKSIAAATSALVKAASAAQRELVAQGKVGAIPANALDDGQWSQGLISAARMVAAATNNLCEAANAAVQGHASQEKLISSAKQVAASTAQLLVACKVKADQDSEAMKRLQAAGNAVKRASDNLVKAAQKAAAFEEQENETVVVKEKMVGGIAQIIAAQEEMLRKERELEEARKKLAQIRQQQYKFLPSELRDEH
UniProt Q9Y4G6: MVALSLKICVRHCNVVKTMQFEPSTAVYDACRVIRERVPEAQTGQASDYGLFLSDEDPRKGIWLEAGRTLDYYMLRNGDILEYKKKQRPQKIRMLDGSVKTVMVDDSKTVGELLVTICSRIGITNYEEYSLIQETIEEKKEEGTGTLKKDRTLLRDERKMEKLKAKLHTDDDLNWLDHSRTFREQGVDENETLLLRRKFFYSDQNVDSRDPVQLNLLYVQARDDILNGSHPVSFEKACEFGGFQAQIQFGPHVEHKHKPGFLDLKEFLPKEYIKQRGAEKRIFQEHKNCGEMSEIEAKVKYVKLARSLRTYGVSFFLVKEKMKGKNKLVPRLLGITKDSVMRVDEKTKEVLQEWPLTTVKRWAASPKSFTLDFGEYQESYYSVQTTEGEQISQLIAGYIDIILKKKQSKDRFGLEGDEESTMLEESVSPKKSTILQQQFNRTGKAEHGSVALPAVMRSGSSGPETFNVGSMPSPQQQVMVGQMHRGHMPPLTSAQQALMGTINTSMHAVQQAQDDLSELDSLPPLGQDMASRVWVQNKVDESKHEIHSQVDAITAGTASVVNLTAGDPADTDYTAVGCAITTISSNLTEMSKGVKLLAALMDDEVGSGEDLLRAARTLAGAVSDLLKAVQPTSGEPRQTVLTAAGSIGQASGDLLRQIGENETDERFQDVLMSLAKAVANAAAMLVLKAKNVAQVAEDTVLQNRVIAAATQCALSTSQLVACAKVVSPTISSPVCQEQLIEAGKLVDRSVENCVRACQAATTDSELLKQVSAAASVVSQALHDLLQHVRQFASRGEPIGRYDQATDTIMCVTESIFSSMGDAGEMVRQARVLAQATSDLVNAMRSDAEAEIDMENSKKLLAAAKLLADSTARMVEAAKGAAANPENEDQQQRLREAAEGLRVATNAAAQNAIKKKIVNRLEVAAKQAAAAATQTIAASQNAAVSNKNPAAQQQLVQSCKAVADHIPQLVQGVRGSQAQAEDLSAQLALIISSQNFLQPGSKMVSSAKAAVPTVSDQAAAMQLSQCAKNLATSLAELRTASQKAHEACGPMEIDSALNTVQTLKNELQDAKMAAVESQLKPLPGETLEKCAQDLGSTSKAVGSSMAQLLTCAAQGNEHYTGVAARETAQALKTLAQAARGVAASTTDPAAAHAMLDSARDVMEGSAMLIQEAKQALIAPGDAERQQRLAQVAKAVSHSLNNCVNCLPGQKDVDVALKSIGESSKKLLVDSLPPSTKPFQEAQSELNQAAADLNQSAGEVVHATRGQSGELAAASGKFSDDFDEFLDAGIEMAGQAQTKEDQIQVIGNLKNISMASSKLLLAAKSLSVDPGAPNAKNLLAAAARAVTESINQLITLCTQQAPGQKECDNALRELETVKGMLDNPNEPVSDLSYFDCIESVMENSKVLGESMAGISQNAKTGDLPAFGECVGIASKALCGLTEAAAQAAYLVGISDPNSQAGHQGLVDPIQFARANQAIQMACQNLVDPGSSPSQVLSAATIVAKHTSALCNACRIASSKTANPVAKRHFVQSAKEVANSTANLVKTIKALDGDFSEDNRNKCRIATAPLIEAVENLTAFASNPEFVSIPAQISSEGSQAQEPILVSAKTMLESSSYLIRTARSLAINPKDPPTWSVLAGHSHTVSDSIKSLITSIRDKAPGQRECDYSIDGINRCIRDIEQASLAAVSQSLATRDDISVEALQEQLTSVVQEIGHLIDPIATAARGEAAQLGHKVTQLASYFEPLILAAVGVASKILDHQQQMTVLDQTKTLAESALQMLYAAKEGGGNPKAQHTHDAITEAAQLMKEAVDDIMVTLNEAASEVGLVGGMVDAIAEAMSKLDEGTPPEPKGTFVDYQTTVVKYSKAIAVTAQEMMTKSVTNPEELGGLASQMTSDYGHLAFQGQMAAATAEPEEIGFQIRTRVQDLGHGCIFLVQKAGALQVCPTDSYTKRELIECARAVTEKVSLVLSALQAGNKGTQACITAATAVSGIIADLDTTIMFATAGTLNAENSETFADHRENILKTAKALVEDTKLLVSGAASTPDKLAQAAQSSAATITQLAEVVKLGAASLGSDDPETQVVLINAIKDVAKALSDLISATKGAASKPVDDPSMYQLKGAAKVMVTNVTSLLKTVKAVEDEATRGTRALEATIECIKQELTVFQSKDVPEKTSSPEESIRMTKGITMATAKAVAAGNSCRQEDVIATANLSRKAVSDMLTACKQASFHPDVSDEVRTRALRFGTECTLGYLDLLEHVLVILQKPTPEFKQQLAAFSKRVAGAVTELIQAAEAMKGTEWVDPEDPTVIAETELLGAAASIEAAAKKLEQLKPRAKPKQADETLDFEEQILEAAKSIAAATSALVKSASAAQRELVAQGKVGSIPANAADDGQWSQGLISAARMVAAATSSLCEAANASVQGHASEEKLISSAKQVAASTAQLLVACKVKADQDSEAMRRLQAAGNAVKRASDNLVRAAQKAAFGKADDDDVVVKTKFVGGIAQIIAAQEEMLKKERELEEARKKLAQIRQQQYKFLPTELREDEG

B1: KANK2 (protein, UniProt Q63ZY3 1-851)
chain: MAQVLHVPAPFPGTPGPASPPAFPAKDPDPPYSVETPYGYRLDLDFLKYVDDIEKGHTLRRVAVQRRPRLSSLPRGPGSWWTSTESLCSNASGDSRHSAYSYCGRGFYPQYGALETRGGFNPRVERTLLDARRRLEDQAATPTGLGSLTPSAAGSTASLVGVGLPPPTPRSSGLSTPVPPSAGHLAHVREQMAGALRKLRQLEEQVKLIPVLQVKLSVLQEEKRQLTVQLKSQKFLGHPTAGRGRSELCLDLPDPPEDPVALETRSVGTWVRERDLGMPDGEAALAAKVAVLETQLKKALQELQAAQARQADPQPQAWPPPDSPVRVDTVRVVEGPREVEVVASTAAGAPAQRAQSLEPYGTGLRALAMPGRPESPPVFRSQEVVETMCPVPAAATSNVHMVKKISITERSCDGAAGLPEVPAESSSSPPGSEVASLTQPEKSTGRVPTQEPTHREPTRQAASQESEEAGGTGGPPAGVRSIMKRKEEVADPTAHRRSLQFVGVNGGYESSSEDSSTAENISDNDSTENEAPEPRERVPSVAEAPQLRPAGTAAAKTSRQECQLSRESQHIPTAEGASGSNTEEEIRMELSPDLISACLALEKYLDNPNALTERELKVAYTTVLQEWLRLACRSDAHPELVRRHLVTFRAMSARLLDYVVNIADSNGNTALHYSVSHANFPVVQQLLDSGVCKVDKQNRAGYSPIMLTALATLKTQDDIETVLQLFRLGNINAKASQAGQTALMLAVSHGRVDVVKALLACEADVNVQDDDGSTALMCACEHGHKEIAGLLLAVPSCDISLTDRDGSTALMVALDAGQSEIASMLYSRMNIKCSFAPMSDDESPTSSSAEE

Molecular target: BirA-tensin3 (tensin3 with an N-terminal BirA* plus myc tag) (human) (UniProt Q68CZ2)
Test: proximity labelling; SILAC BioID in U2OS cells stably expressing myc-BirA*-tensin3 against myc-BirA* alone; biotin 100 µM for 16 h, NeutrAvidin capture, mass spectrometry; enriched at heavy-to-light ratio ≥2.5

binding, binds:
talin1 (from UniProt Q9Y490 1-2541)
talin2 (from UniProt Q9Y4G6 1-2542)
B1
